No constants are given. Whether binding was seen depends on the method and setting. In cells and extracts the contact can be indirect. Some entries that bind do so weakly or less than the wild type.
Target: human μ receptor-Rluc (human) (UniProt P35372)
Test: FRET or BRET; HEK 293 cells co-transfected with human μ receptor-Rluc and arrestin-3-GFP; BRET at 37°C after 10 min incubation with agonist (DAMGO, morphine or PZM21, 10^-9 - 3 x 10^-5 M)

Chains of the proteins cited; added tags and fusions are not shown.
UniProt P35372: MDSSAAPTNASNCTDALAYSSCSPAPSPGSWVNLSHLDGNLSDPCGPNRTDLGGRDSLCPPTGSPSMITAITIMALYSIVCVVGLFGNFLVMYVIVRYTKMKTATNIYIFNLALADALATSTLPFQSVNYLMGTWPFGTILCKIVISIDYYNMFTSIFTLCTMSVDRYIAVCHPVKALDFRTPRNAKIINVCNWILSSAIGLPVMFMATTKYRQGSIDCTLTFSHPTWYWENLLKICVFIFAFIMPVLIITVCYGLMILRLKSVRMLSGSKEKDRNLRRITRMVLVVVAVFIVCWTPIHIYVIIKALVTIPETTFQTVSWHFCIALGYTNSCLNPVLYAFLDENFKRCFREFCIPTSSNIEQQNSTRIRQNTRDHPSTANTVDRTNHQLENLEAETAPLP
UniProt P32121: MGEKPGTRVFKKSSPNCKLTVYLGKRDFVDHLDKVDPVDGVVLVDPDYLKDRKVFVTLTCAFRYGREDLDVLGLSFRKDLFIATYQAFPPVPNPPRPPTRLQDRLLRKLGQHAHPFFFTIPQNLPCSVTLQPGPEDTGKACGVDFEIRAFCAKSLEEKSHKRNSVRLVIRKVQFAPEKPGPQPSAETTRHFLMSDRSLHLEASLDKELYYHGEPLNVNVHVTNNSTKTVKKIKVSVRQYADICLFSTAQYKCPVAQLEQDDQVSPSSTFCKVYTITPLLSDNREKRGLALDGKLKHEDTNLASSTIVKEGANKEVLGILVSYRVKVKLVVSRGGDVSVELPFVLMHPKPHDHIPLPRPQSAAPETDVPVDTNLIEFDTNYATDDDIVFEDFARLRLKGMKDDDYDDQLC

**Q.** How did the binding turn out when “arrestin-3-GFP (from UniProt P32121 1-409)” was run?
**A.** The binding was “binds”.
